According to article PMC8748766, “The catalytic activity of TCPTP is auto-regulated by its intrinsically disordered tail and activated by Integrin alpha-1” (Nature Communications, 2022):

Assay: SAXS (inline HPLC-SAXS)
Set-up: species or system Homo sapience
Settings: TCPTPCAT residues 1–314; for Rg (from Guinier): 50 mM Tris-HCl pH 7.4, 50 mM NaCl, 5% Glycerol, 1 mM TCEP, 288 K; for Dmax / Porod Volume / Rg [from P(r)] / Volume of correlation (Vc): pH 7.4, 288 K

| Molecule | Rg (from Guinier) [Å] | Dmax [Å] | Porod Volume [Å3] | Rg [from P(r)] [Å] | Volume of correlation (Vc) |
| --- | --- | --- | --- | --- | --- |
| TCPTP: T-Cell Protein Tyrosine Phosphatase, TC45 isoform, full-length residues 1–387 (protein, left off: His6, N-terminal, cleaved) MPTTIEREFEELDTQRRWQPLYLEIRNESHDYPHRVAKFPENRNRNRYRDVSPYDHSRVKLQNAENDYINASLVDIEEAQRSYILTQGPLPNTCCHFWLMVWQQKTKAVVMLNRIVEKESVKCAQYWPTDDQEMLFKETGFSVKLLSEDVKSYYTVHLLQLENINSGETRTISHFHYTTWPDFGVPESPASFLNFLFKVRESGSLNPDHGPAVIHCSAGIGRSGTFSLVDTCLVLMEKGDDINIKQVLLNMRKYRMGLIQTPDQLRFSYMAIIEGAKCIKGDSSIQKRWKELSKEDLSPAFDHSPNKIMTEKYNGNRIGLEEEKLTGDRCTGLSSKMQDTMEENSESALRKRIREDRKATTAQKVQQMKQRLNENERKRKRPRLTDT | 37.3 ± 0.1 | 165 | 98700 | 38.5 ± 0.9 | 475 |
| TCPTPCAT: TCPTP catalytic domain, residues 1–288, 1–302 (NMR) or 1–314 (activity, SAXS) (protein, UniProt P17706 1-314, looked up, fragment, catalytic domain) MPTTIEREFEELDTQRRWQPLYLEIRNESHDYPHRVAKFPENRNRNRYRDVSPYDHSRVKLQNAENDYINASLVDIEEAQRSYILTQGPLPNTCCHFWLMVWQQKTKAVVMLNRIVEKESVKCAQYWPTDDQEMLFKETGFSVKLLSEDVKSYYTVHLLQLENINSGETRTISHFHYTTWPDFGVPESPASFLNFLFKVRESGSLNPDHGPAVIHCSAGIGRSGTFSLVDTCLVLMEKGDDINIKQVLLNMRKYRMGLIQTPDQLRFSYMAIIEGAKCIKGDSSIQKRWKELSKEDLSPAFDHSPNKIMTEKYN | 27.2 ± 0.1 | 105 | 69900 | 26.6 ± 0.4 | 364 |
